Laboratory results as given in PMC3245275.
Positions count from the first letter of the chain named. In names and notes the source's numbering stands. Results are given in words; binding and its absence hold for the method and conditions named. In cells and extracts the contact can be indirect. Some entries that bind do so weakly or less than the wild type. Where a sequence is shown, tags or fusion partners need not be part of it. Blank lines part the entries; values can stand above or below the binder they belong to.

Tests used:
GFP-TAK1 = target: T1, GFP-TAK1 (UniProt O43318); experiment: co-IP; lysates of HEK293IL-1R cells co-transfected with GFP-TAK1 and TAB1 vectors; GFP (clones 7.1 and 13.1) antibodies on protein G Sepharose, 2–6 h, 4°C; beads washed twice with cell lysis buffer plus 0.5 M NaCl; immunoblot of immunoprecipitates (Fig. S3A)
T1 sequence: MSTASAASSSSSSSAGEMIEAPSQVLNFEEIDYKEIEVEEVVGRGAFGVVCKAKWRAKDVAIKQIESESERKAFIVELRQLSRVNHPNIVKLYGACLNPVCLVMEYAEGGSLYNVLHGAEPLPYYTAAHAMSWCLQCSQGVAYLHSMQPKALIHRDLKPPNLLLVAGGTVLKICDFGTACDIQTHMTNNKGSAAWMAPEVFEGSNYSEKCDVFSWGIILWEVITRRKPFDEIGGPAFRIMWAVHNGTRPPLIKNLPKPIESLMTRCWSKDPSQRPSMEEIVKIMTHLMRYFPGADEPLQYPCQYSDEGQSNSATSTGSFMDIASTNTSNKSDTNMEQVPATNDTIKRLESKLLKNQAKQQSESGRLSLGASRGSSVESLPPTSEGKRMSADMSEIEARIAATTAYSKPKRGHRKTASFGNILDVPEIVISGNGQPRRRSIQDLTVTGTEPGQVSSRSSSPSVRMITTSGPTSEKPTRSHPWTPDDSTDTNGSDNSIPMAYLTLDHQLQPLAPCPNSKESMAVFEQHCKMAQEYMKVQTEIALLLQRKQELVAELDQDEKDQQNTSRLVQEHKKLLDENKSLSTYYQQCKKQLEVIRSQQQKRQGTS

[1] = target: T2, MYC-TAB1 (TAK1-binding protein 1, wild type) (human) (UniProt Q15750); experiment: co-IP; lysates of HEK293IL-1R cells co-transfected with HA-TAK1 or HA-TAK1 K63W plus MYC-TAB1; MYC (9E10) antibodies on protein G Sepharose, 2–6 h, 4°C; beads washed twice with cell lysis buffer plus 0.5 M NaCl; immunoblot of immunoprecipitates (Fig. 2C)
T2 sequence: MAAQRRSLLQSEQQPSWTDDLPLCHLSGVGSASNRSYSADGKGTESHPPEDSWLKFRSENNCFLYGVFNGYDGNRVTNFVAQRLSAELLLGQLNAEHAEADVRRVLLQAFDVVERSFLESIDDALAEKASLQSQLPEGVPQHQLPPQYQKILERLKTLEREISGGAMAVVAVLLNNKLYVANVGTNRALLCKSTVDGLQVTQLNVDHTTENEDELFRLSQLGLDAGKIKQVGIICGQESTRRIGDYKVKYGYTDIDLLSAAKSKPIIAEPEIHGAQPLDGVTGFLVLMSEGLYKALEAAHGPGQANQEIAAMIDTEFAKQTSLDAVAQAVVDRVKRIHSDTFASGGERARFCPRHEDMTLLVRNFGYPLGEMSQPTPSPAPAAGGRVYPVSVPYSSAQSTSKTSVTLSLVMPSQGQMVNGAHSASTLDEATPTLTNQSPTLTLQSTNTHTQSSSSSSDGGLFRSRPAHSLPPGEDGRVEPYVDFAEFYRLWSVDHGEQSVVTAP

B1: TAB1ΔS (TAB1 lacking aa 452–457; co-transfected with GFP-TAK1, Fig. S3A) (protein, UniProt Q15750)
chain: MAAQRRSLLQSEQQPSWTDDLPLCHLSGVGSASNRSYSADGKGTESHPPEDSWLKFRSENNCFLYGVFNGYDGNRVTNFVAQRLSAELLLGQLNAEHAEADVRRVLLQAFDVVERSFLESIDDALAEKASLQSQLPEGVPQHQLPPQYQKILERLKTLEREISGGAMAVVAVLLNNKLYVANVGTNRALLCKSTVDGLQVTQLNVDHTTENEDELFRLSQLGLDAGKIKQVGIICGQESTRRIGDYKVKYGYTDIDLLSAAKSKPIIAEPEIHGAQPLDGVTGFLVLMSEGLYKALEAAHGPGQANQEIAAMIDTEFAKQTSLDAVAQAVVDRVKRIHSDTFASGGERARFCPRHEDMTLLVRNFGYPLGEMSQPTPSPAPAAGGRVYPVSVPYSSAQSTSKTSVTLSLVMPSQGQMVNGAHSASTLDEATPTLTNQSPTLTLQSTNTHTQDGGLFRSRPAHSLPPGEDGRVEPYVDFAEFYRLWSVDHGEQSVVTAP
binding (GFP-TAK1): binds

B3: HA-TAK1 K63W (inactive TAK1) (enzyme, UniProt O43318 1-606)
chain: T1 sequence with K63W
binding [1]: binds

Second part, the binder after the results:

binding [1]: binds
B2: HA-TAK1 (TGFβ-activated protein kinase 1, wild type) (enzyme, UniProt O43318 1-606)
chain: T1 sequence

binding (GFP-TAK1): binds
B4: TAB1 wild type (co-transfected with GFP-TAK1, Fig. S3A) (protein, UniProt Q15750 1-504)
chain: T2 sequence
